Data as given in the RNAGym collection of RNA variant scans (doi:10.1126/science.aae0568).
Variants at the background level are over-represented here.

B1: tRNA (parent)
chain: GUUCCGUUGGCGUAAUGGUAACGCGUCUCCCUCCUAAGGAGAAGACUGCGGGUUCGAGUCCCGUACGGAACG

Variants of: B1
Experiment: yeast fitness relative to wild type (ratio to wild type); higher = fitter; tRNA-Arg(CCU), competitive growth, 37 C, YPD
How it was run: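 The tRNA-Arg(CCU) gene variants were made by chemical synthesis with a 3% per-site mutation rate at 69 sites and inserted at the native genomic locus of Saccharomyces cerevisiae. After pooling, the strains were competed in YPD at 37°C for 24 hours in six parallel replicates. Gene amplicons from the start population and each end population were read by 100-nucleotide paired-end sequencing, and Darwinian fitness relative to wild type was taken from genotype frequency changes. Genotypes needed ≥ 100 starting reads, and estimates < 0.5 were set to 0.5.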

U2G C5G U47G and G39C A40G C66G A69C cannot be ordered by yeast fitness: ≤ 0.5 for the first, ≤ 0.5 for the second.

Compared with C30U A70C, C22G C30U C49A G52A C61G A70U is lower in yeast fitness: 0.869 for the first, ≤ 0.5 for the second.

A15C C22U A40U G48A U53A G67C and C4A G41A C55U A70U cannot be ordered by yeast fitness: ≤ 0.5 for the first, ≤ 0.5 for the second.

C24G U54C G67C and G9C C30G A69C cannot be ordered by yeast fitness: ≤ 0.5 for the first, ≤ 0.5 for the second.

Compared with C27G A45C G58C, C4G G23C A69U is lower in yeast fitness: 0.644 for the first, ≤ 0.5 for the second.

G18A G25C C30G G41U C55G and U7A G9C G17C A20G G48A cannot be ordered by yeast fitness: ≤ 0.5 for the first, ≤ 0.5 for the second.

C4U A14G C34A and C22U G52A C60G A70U cannot be ordered by yeast fitness: ≤ 0.5 for the first, ≤ 0.5 for the second.

C27U C29U A65C A69C and U32C A43C U47A cannot be ordered by yeast fitness: ≤ 0.5 for the first, ≤ 0.5 for the second.

C11U A20U G38A C61U A69U and U7A A15G C24G G50A C55U cannot be ordered by yeast fitness: ≤ 0.5 for the first, ≤ 0.5 for the second.

Going from C27G U35A to U8G A37U A57U C60G G68C, the yeast fitness falls from 0.636 to ≤ 0.5.

C5U A15C C22G C31A and U3C C22G C55U C61A cannot be ordered by yeast fitness: ≤ 0.5 for the first, ≤ 0.5 for the second.

G6A C24U G25C and A36C A37U U54C A57G cannot be ordered by yeast fitness: ≤ 0.5 for the first, ≤ 0.5 for the second.

C27G C31A A37C and A21G A36U A43U C62A cannot be ordered by yeast fitness: ≤ 0.5 for the first, ≤ 0.5 for the second.

C11G C29G U35C U47A and G6A C30U G51A G52U G56C cannot be ordered by yeast fitness: ≤ 0.5 for the first, ≤ 0.5 for the second.

G12C C33U C46G U54A and C11G C29G C49U G63A cannot be ordered by yeast fitness: ≤ 0.5 for the first, ≤ 0.5 for the second.

A14G C33U G38A and G9A A14C G25C G56A C66U cannot be ordered by yeast fitness: ≤ 0.5 for the first, ≤ 0.5 for the second.

G9C C31U A57C A69C and G9C C34G G50A C61U C66U cannot be ordered by yeast fitness: ≤ 0.5 for the first, ≤ 0.5 for the second.

C30G G63A G68A and C11G C30G U53G C60U cannot be ordered by yeast fitness: ≤ 0.5 for the first, ≤ 0.5 for the second.

G9A G39C A42C and U26G C29G C30A A36G cannot be ordered by yeast fitness: ≤ 0.5 for the first, ≤ 0.5 for the second.

C31A A45C C62U G63A U64G and U8A C11A C24A C29A C34U C61G A65C cannot be ordered by yeast fitness: ≤ 0.5 for the first, ≤ 0.5 for the second.

G12A A45C G50U and C4A G12A C33A C60A U64C cannot be ordered by yeast fitness: ≤ 0.5 for the first, ≤ 0.5 for the second.

A15C A37C A57C and C46G G56C G68U cannot be ordered by yeast fitness: ≤ 0.5 for the first, ≤ 0.5 for the second.

Compared with U26C C60A, C24G C31U U59C is lower in yeast fitness: 0.572 for the first, ≤ 0.5 for the second.

C4A C33U A57G and A14G U26C G67C A69G cannot be ordered by yeast fitness: ≤ 0.5 for the first, ≤ 0.5 for the second.

Going from A36C C62G to U3A U7A G12C C46U, the yeast fitness falls from 0.575 to ≤ 0.5.

Compared with C27G G56A C66A, U8A G17A C22U is higher in yeast fitness: ≤ 0.5 for the first, 0.607 for the second.

C29G C33U C34U G56C C66A and U3A C11G G12A C22U G39A U64A cannot be ordered by yeast fitness: ≤ 0.5 for the first, ≤ 0.5 for the second.

U28C A42G A65U A69C and C5A C29A U32C A42C A45G cannot be ordered by yeast fitness: ≤ 0.5 for the first, ≤ 0.5 for the second.

C22G U47A G52A and C31G A43U C60A A70G cannot be ordered by yeast fitness: ≤ 0.5 for the first, ≤ 0.5 for the second.

C5U A37U U54A and C5G A14G G25C C49G cannot be ordered by yeast fitness: ≤ 0.5 for the first, ≤ 0.5 for the second.

G6U A21U C31A G39C C61A and C5A A45G U47A C62A G67U cannot be ordered by yeast fitness: ≤ 0.5 for the first, ≤ 0.5 for the second.

C5U U13A C27G A57C G67A A69U and C22G U35C G48A A57C cannot be ordered by yeast fitness: ≤ 0.5 for the first, ≤ 0.5 for the second.

G18A C46U G50U C60G A70G and U7A C33A C46U cannot be ordered by yeast fitness: ≤ 0.5 for the first, ≤ 0.5 for the second.

Going from G10A U35G A37U to C11G A14U C22A C29G C34A, the yeast fitness falls from 0.551 to ≤ 0.5.

Going from G25U A36U G67C to A14U C62G, the yeast fitness rises from ≤ 0.5 to 0.692.

U13G U32A C33A G56C and G18A C30U A40G G68C cannot be ordered by yeast fitness: ≤ 0.5 for the first, ≤ 0.5 for the second.

C11U A20U U54C C55G and G9C U13A A20U C34A U59A cannot be ordered by yeast fitness: ≤ 0.5 for the first, ≤ 0.5 for the second.

U2A C11G C29U C34U C62A C66U and A20G U53G C60A cannot be ordered by yeast fitness: ≤ 0.5 for the first, ≤ 0.5 for the second.

G41C A43U G68U and U2C G9C C11U A36C A57U A69C cannot be ordered by yeast fitness: ≤ 0.5 for the first, ≤ 0.5 for the second.

G10A C22U U47C and C5U C24U C61G C66U A69U cannot be ordered by yeast fitness: ≤ 0.5 for the first, ≤ 0.5 for the second.

Going from U3G C62G to C5G G50A G51A, the yeast fitness falls from 0.739 to ≤ 0.5.

A14C U16A A21C G56A and G6A A40C A45C A65U cannot be ordered by yeast fitness: ≤ 0.5 for the first, ≤ 0.5 for the second.
